Data published in patent publication US5929085A, “Amidine and isothiourea derivatives, compositions containing them and their use as inhibitors of nitric oxide synthase” (priority 1997, dated 1999).
Where a name gives a salt, the structure may show the parent alone. Some entries share one result that the patent states for a list of compounds.

These compounds were tested against T1, neuronal nitric oxide synthase (Rattus norvegicus, UniProt P29476). Details: read-out: IC50 (concentration of drug substance which gives 50% enzyme inhibition); enzyme from rat hippocampus or cerebellum; 18 μM 1H-L-arginine, 96 nM 3H-L-arginine; 22° C., pH 7.4.
T1 construct: Cerebellar or hippocampal supernatant is prepared by homogenisation; from tissue; host or cells: cerebellum or hippocampus of male Sprague-Dawley rat, 20,000 g supernatant
Assay type: biochemical

| Compound | IC50 |
| --- | --- |
| CC1Cc2ccc(NC(=N)c3cccs3)cc2CN1 (stereo not shown) [Example 1, N-(3-Methyl-1,2,3,4-tetrahydroisoquinolin-7-yl)-2-thiophenecarboximidamide dihydrochloride] | < 10 µM |
| CCC1Cc2ccc(NC(=N)c3cccs3)cc2CN1 (stereo not shown) [Example 2, N-(3-Ethyl-1,2,3,4-tetrahydroisoquinolin-7-yl)-2-thiophenecarboximidamide dihydrochloride] | < 10 µM |
| CC1Cc2ccc(NC(=N)c3cccs3)cc2CN1C (stereo not shown) [Example 10, N-(2,3-Dimethyl-1,2,3,4-tetrahydroisoquinolin-7-yl)-2-thiophenecarboximidamide] | < 10 µM |
| CCCC1Cc2ccc(NC(=N)c3cccs3)cc2CN1 (stereo not shown) [Example 12, N-(3-Propyl-1,2,3,4-tetrahydroisoquinolin-7-yl)-2-thiophenecarboximidamide dihydrochloride] | < 10 µM |
